Experimental data published in patent US20230145200A1, “COMPOSITIONS AND METHODS OF TREATING CANCER” (Tillead Therapeutics, Inc., priority 2020, published 2023).
At least one structure is not confirmed: it was looked up by name or label, or the drawing left a doubt.

Columns and labels:
[1] = tested on: IFNβ; test: Interferon-beta (IFNβ) ELISA assay of MC38 cell culture supernatants; format: cell-based, murine; conditions: agent alone: simvastatin 10 μM, venetoclax 3 μM, doxorubicin 1 μM, docetaxel 10 μM; 24 hours
Procedure: The concentration of IFNβ was measured with VeriKine-HS Interferon Beta Serum ELISA Kit (PBL Assay Science) in accordance with the manufacturer's instruction. The data of absorbance was recorded at 450 nm by using BioTek synergy 4 plate reader and analyzed with GraphPad software.

[2] = tested on: MC38 cells; test: Apoptosis flow cytometry assay (FITC Annexin V/PI); format: cell-based, murine; conditions: agent alone: Venetoclax 3 μM, Doxorubicin 1 μM, Docetaxel 10 μM, Simvastatin 10 μM; 24 hours
Procedure: Cell lines and drugs: MC38 and B16 cell lines were derived from C57BL6 murine colon adenocarcinoma and melanoma cells, respectively. The cells were maintained in Dulbecco's modified Eagle's medium (DMEM) supplemented with 10% heat-inactivated fetal bovine serum (FBS) and 100 U/mL penicillin/streptomycin. The CT26 cells were derived from murine colon adenocarcinoma cells and cultured in RPMI1640 with 10% FBS and 2 mM GlutaMAX.
Apoptosis flow cytometry assay: FITC Annexin V Apoptosis Detection Kit with PI (BioLegend) was used for apoptosis detection. The MC38 cells were seeded in 24-well plate with 1×10^5 cells/well and cultured overnight. […] After 24 hours treatment, cells were collected and dissociated as single cell suspensions for Annexin V/PI staining. In briefing, cells were washed twice with cold BioLegend's Cell Staining Buffer, then resuspended in […] Annexin V Binding Buffer. […] FITC Annex V and […] Propidium Iodide (PI) Solution were added in each sample. The samples were gently vortexed and incubated for 15 minutes at room temperature in the dark. Wash the samples with Cell Staining Buffer one time and resuspend cells in […] Cell Staining Buffer for flow cytometry analysis. The data were recorded on BD Accuri™ C6 plus flow Cytometer and analyzed with FlowJo software.

Structure (SMILES) | IFNβ production in MC38 cells [1] | apoptosis induction in MC38 cells [2]
CC1(C)CCC(CN2CCN(c3ccc(C(=O)NS(=O)(=O)c4ccc(NCC5CCOCC5)c([N+](=O)[O-])c4)c(Oc4cnc5[nH]ccc5c4)c3)CC2)=C(c2ccc(Cl)cc2)C1 [venetoclax] | slightly reduced IFNβ production | induced substantial apoptosis
CCC(C)(C)C(=O)O[C@H]1C[C@@H](C)C=C2C=C[C@H](C)[C@H](CC[C@@H]3C[C@@H](O)CC(=O)O3)[C@H]21 [simvastatin] | slightly reduced IFNβ production | 
